The nature of this assay: qHTS Assay to Find Inhibitors of Chronic Active B-Cell Receptor Signaling. As to conditions: ABC-DLBCL IkBa-CBG/CBR reporter, luminescence ratio (green luciferase fused to IkBa over red control in TMD8 lymphoma cells), 4 h. In a few lines: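 Cell line TMD8 (human ABC DLBCL), stably expressing tet-inducible CBG68-IkBa fusion and CBR; IMDM/0.5% FBS; cpd up to 46 uM; dox induction, 4 h, 37C/5% CO2; dual luminescence; green/red ratio; MG132 control.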
On the technique in general: Quantitative high-throughput screening tests each substance at several concentrations.

[1] abbreviates: measured here: CBR red luminescence, cell number.
[2] abbreviates: measured here: IkBa-CBG green luminescence.

The other results are listed elsewhere or left out. Shown are side measurements of this screen, not its main read-out; they come without a call. Compounds called inactive in the main read-out are mostly missing here. The note in brackets gives the kind of curve behind each potency; many fits are weak.

`c1ccc(-c2noc(CC3CCCCC3)n2)nc1`: the AC50 under setting [1] is 35.5 µM [falling, single point].

`O=C(CSc1ncnc2ccccc12)Nc1cc(S(=O)(=O)N2CCCCC2)ccc1Cl`: under setting [1], the AC50 is 29.1 µM [falling, single point].

On to `C/C(CCc1ccc2c(c1)OCO2)=N\NC(=O)c1ccccc1Br`, for which the AC50 under setting [1] is 7.94 µM [falling, partial curve].

In the case of `O=C(Nc1ccc2c(c1)OCO2)C1CCCN(c2nc3ccccc3s2)C1` (stereo not drawn), the half-maximal activity concentration (AC50) under setting [1] is 11.2 µM [falling, partial curve].

Take `COc1ccc(C(c2c(C)n(C)n(-c3ccccc3)c2=O)c2c(C)n(C)n(-c3ccccc3)c2=O)cc1O`: the AC50 under setting [1] was 35.5 µM [rising, partial curve, poor fit].

Consider `Cc1oc2c(C)c(O)ccc2c(=O)c1-c1cnn(-c2ccccc2)c1`, for which the AC50 under setting [1] is 2.82 µM [rising, full curve, poor fit].

As for `CCn1cc([N+](=O)[O-])c(C(=O)Nc2ccc(Cn3nc(C)cc3C)cc2)n1`, the AC50 runs as follows: under setting [1], 3.98 µM [falling, single point]; under setting [2], 3.98 µM [rising, partial curve, poor fit].

For the compound `O=C(NC(=S)Nc1ccccc1O)c1ccc(Cl)cc1Cl`, the AC50 under setting [1] is 0.501 µM [rising, full curve, poor fit].

As for `Clc1ccc(-c2cn3cccnc3n2)cc1`, the AC50 under setting [1] was 6.51 µM [rising, partial curve, poor fit].

`Nc1nnnn1CC(=O)N/N=C/c1cc([N+](=O)[O-])ccc1O`: the AC50 under setting [1] was 35.5 µM [falling, single point].

For the compound `COc1ccc(Cl)cc1C(=O)NNC(=O)c1csc(N2CCOCC2)n1`, the AC50 under setting [1] was 32.6 µM [falling, single point].

In the case of `CC(C)=C1C2CCC1C(C(=O)Nc1sc(C)c(-c3ccc(C(C)C)cc3)c1C(N)=O)C2C(=O)O` (stereo not drawn), the AC50 under setting [1] was 29.1 µM [falling, single point].

Consider `O/N=C/C1=C(Cl)c2ccccc2CC1`, for which the AC50 under setting [1] is 11.2 µM [rising, single point].

As to `CN(C)c1cc[n+](CC(=O)Nc2c(Cl)cc(Cl)cc2Cl)cc1`, under setting [1], the AC50 was 12.6 µM [falling, partial curve, poor fit].

In the case of `C/C(=N\NC(=O)c1cccs1)c1c(O)cc(C)oc1=O`, the AC50 under setting [1] is 25.1 µM [falling, single point].

As to `CCc1ccc(C(=O)Nc2nc3ccccc3[nH]2)cc1`, the AC50 under setting [1] was 0.631 µM [falling, full curve].

On to `O=C(Nc1ccc(-n2cccn2)cc1)C1CCCCN1Cc1cccc2c1OCO2` (stereo not drawn), for which the AC50 runs as follows: under setting [1], 35.5 µM [rising, single point]; under setting [2], 20 µM [falling, single point].

As to `COc1ccc(-n2nc(C(=O)Nc3ccc(OC)c(OC)c3)c3c4ccccc4n(C)c3c2=O)cc1`, under setting [1], the AC50 is 8.2 µM [falling, partial curve, poor fit].

For the compound `Cc1cccc(NC(c2cccc(F)c2)c2ccc3ccc(C)nc3c2O)n1` (stereo not drawn), the AC50 under setting [1] is 2.24 µM [falling, full curve].

With `O=C(NCc1ccco1)C1CCCN(S(=O)(=O)c2cnc[nH]2)C1` (stereo not drawn), the AC50 under setting [1] was 29.1 µM [rising, single point].

As to `COc1cccc(OCCSc2nnc3sc4ccccc4n23)c1`, under setting [1], the AC50 is 14.6 µM [falling, partial curve, poor fit].

With `COc1ccccc1C(=O)ON=C1c2ccccc2-c2ccccc21`, the AC50 under setting [1] was 5.17 µM [falling, partial curve] and the AC50 under setting [2] was 23.1 µM [rising, partial curve, poor fit].

`O=C(C[n+]1cc(-c2ccc(Cl)cc2)n2c1CCC2)Nc1nc(-c2ccc(F)cc2)cs1`: under setting [1], the concentration at half-maximal activity (AC50) was 11.2 µM [falling, partial curve].

Turning to `COc1cccc(CN2CCN(Cc3cc4ccccc4[nH]3)CC2CCO)c1` (stereo not drawn), under setting [1], the AC50 was 14.1 µM [rising, partial curve, poor fit].

Take `O=C(NCc1ccco1)c1cccc(Nc2nc3ccc(Br)cc3[nH]2)c1`: the AC50 under setting [1] is 14.6 µM [falling, single point].

With `O=C(CSc1nnc2ccc(-c3cccnc3)nn12)Nc1ccc(F)cc1F`, the concentration at half-maximal activity (AC50) under setting [1] is 35.5 µM [falling, single point].

`COc1ccc(CC(NC(C)=O)C(=O)NC2CCN(c3nc(C)cc(C)c3C#N)CC2)c(OC)c1` (stereo not drawn): under setting [1], the AC50 is 8.91 µM [rising, single point].

Consider `COc1ccc([N+](=O)[O-])cc1NC(C)C`, for which, under setting [1], the AC50 was 14.6 µM [rising, partial curve, poor fit].

Turning to `Cc1cc(C)c2nc3nc(C)cc(C)c3c(N)c2c1`, the AC50 under setting [1] was 16.4 µM [falling, single point].

Turning to `CC1CCN(CCCNC(=O)c2ccc(CSCc3cccc(Cl)c3)o2)CC1`, under setting [1], the AC50 was 32.6 µM [falling, single point].

Consider `COc1ccc(-c2cc(-c3nc4ccccn4c3NCc3ccccc3)ccc2OC)cc1`, for which the AC50 reads like this: under setting [1], 7.31 µM [falling, partial curve]; under setting [2], 32.6 µM [rising, partial curve, poor fit].

For `CCOn1c(=O)c(-c2cc3ccccc3o2)[n+]([O-])c2ccccc21`, the AC50 under setting [1] is 23.1 µM [rising, single point].

As for `N=c1n(CCN2CCCCC2)c2ccccc2n1CC(O)c1ccc(Cl)c(Cl)c1` (stereo not drawn), the AC50 under setting [1] was 14.6 µM [falling, partial curve, poor fit].

With `COc1cc(Nc2nc(SCc3ccccc3F)nc3ccccc23)cc(OC)c1`, the AC50 under setting [1] is 35.5 µM [falling, single point].

Turning to `CC(=O)c1cccc(OC(=O)c2cc(S(=O)(=O)N3CCOCC3)ccc2N2CCCC2)c1`, the AC50 under setting [1] was 4.11 µM [rising, full curve].

Turning to `COc1ccccc1/C=C/C(=O)NCc1cccnc1`, the AC50 under setting [1] is 22.4 µM [falling, single point].

With `Cc1cccc(-n2nnc(C(=O)NCc3ccccc3Cl)c2N)c1`, under setting [1], the half-maximal activity concentration (AC50) was 7.94 µM [falling, partial curve, poor fit].

With `C/C(CC(=O)Nc1ccccn1)=N\NC(=O)c1cccc(C)c1`, the AC50 under setting [1] was 4.47 µM [falling, partial curve].

With `COc1ccccc1CN1CC(C(=O)NCc2cccnc2)CC1=O` (stereo not drawn), the half-maximal activity concentration (AC50) under setting [1] is 5.17 µM [rising, full curve, poor fit].

Consider `COc1ncccc1-c1nnn(-c2ccccc2)n1`, for which, under setting [1], the AC50 is 10 µM [falling, partial curve, poor fit].

Consider `O=C(Nc1nc2c(s1)CCc1ccccc1-2)c1ccco1`, for which the AC50 under setting [1] is 29.1 µM [falling, single point].

As for `CSc1nnc(-c2ccc(Cl)cc2Cl)o1`, the AC50 under setting [1] was 0.447 µM [rising, partial curve, poor fit].

As to `CCn1c(/C=C\c2ccccc2C)nc2ccccc2c1=O`, the half-maximal activity concentration (AC50) under setting [1] was 15.8 µM [falling, single point].

With `CC(Sc1nnnn1C)C(=O)Nc1nc(-c2ccc(F)c(F)c2)cs1` (stereo not drawn), the AC50 under setting [1] is 0.731 µM [rising, full curve, poor fit].

Take `CC(=O)NCCc1cc2cc(C)c(C)cc2[nH]c1=O`: under setting [1], the AC50 was 0.112 µM [falling, full curve, poor fit].

Turning to `c1ccc(-n2cnc3cc(NCc4cccs4)ccc32)cc1`, the AC50 under setting [1] is 12.6 µM [falling, partial curve, poor fit].

With `C=CCOC(=O)CCC(=O)Nc1cc(OC)nc(OC)n1`, under setting [2], the AC50 is 25.9 µM [rising, partial curve, poor fit].

As to `CCOc1ccccc1/C=C/c1nc2ccccc2[nH]c1=O`, the AC50 under setting [1] is 35.5 µM [falling, single point].

Consider `COc1cc([N+](=O)[O-])ccc1NC(=O)NCC1CCN(Cc2ccc(Cl)cc2)CC1`, for which the AC50 under setting [1] was 17.8 µM [falling, single point].

With `CC1CN(C(=O)/C=C/c2ccc3c(c2)OCO3)CC(C)O1` (stereo not drawn), the AC50 under setting [1] is 13 µM [rising, partial curve, poor fit].

For the compound `CCOc1cccc(-c2nnc3sc(-c4cc(OC)c(OC)c(OC)c4)nn23)c1`, under setting [1], the AC50 is 2.82 µM [rising, partial curve, poor fit].

Consider `O=C(CC(=O)c1ccccc1O)c1ccc(F)cc1`, for which the AC50 under setting [1] was 1.3 µM [rising, full curve, poor fit].

Regarding `O=C(CSc1ncccc1-c1nc2ccccc2[nH]1)NCc1ccco1`, under setting [1], the AC50 is 3.98 µM [falling, full curve].

Regarding `Cc1ccc(-n2nc(C)c3cc(C(=O)O)sc32)cc1`, under setting [1], the AC50 was 20.6 µM [falling, single point].

With `O=C(O)C1C2C=CC(C2)C1C(=O)Nc1ccccc1Br` (stereo not drawn), the AC50 under setting [1] was 3.98 µM [rising, single point].

Regarding `O=C(/C=C/c1ccccc1)N1CCN(c2ccccn2)CC1`, the AC50 under setting [1] was 22.4 µM [falling, single point].

Take `C=CCNc1nc(Nc2ccccc2F)nc(OCC)n1`: the AC50 under setting [1] was 10 µM [falling, partial curve].

`O=C(O)c1ccc(S(=O)(=O)c2ccc3c(c2)C(=O)N(NC(=O)c2ccc(O)cc2)C3=O)cc1`: the AC50 under setting [1] was 0.631 µM [falling, full curve].

As for `Cc1cc(C(=O)NCc2ccccc2)c(=O)[nH]c1C`, the AC50 under setting [1] is 35.5 µM [falling, single point].

With `CCN(C(=O)COC(=O)c1ccccc1Nc1cccc(C)c1C)C1CCS(=O)(=O)C1` (stereo not drawn), under setting [1], the AC50 was 0.355 µM [falling, full curve, poor fit].

With `O=C(Nc1ccc2c(c1)OCO2)c1ccc(Cl)cc1Cl`, the AC50 under setting [1] was 3.98 µM [rising, single point].

On to `Cc1ccc(C(=O)OC(C)C(=O)NC2CCCCC2C)cc1S(=O)(=O)N1CCOCC1` (stereo not drawn), for which the AC50 under setting [1] was 35.5 µM [rising, single point].

`Cc1ccc(Oc2c(C(N)=O)cc([N+](=O)[O-])cc2[N+](=O)[O-])cc1`: the AC50 reads like this: under setting [1], 18.4 µM [falling, single point]; under setting [2], 32.6 µM [rising, partial curve, poor fit].

As usually defined, the AC50 is the concentration at which the activity in the assay is half-maximal.

These data come from PubChem BioAssay AID493014 (National Center for Advancing Translational Sciences (NCATS), 2011).
